This experiment addresses human telomerase reverse transcriptase (human (endogenous in Cal27)) (UniProt O14746). The experiment is described as follows: co-IP; endogenous proteins; whole cell lysate of Cal27 cells (1 mg total protein, IP lysis buffer, precleared) incubated with 2 ug anti-hTERT antibody or IgG control at 4 C, Protein G Plus/Protein A-agarose beads overnight; immunoblot for p-AKT, p-ERK and p53. (In general: In western blotting, separated proteins are transferred to a membrane and probed.)

Amino acid sequences for entries named in this document (tags omitted).
UniProt O14746: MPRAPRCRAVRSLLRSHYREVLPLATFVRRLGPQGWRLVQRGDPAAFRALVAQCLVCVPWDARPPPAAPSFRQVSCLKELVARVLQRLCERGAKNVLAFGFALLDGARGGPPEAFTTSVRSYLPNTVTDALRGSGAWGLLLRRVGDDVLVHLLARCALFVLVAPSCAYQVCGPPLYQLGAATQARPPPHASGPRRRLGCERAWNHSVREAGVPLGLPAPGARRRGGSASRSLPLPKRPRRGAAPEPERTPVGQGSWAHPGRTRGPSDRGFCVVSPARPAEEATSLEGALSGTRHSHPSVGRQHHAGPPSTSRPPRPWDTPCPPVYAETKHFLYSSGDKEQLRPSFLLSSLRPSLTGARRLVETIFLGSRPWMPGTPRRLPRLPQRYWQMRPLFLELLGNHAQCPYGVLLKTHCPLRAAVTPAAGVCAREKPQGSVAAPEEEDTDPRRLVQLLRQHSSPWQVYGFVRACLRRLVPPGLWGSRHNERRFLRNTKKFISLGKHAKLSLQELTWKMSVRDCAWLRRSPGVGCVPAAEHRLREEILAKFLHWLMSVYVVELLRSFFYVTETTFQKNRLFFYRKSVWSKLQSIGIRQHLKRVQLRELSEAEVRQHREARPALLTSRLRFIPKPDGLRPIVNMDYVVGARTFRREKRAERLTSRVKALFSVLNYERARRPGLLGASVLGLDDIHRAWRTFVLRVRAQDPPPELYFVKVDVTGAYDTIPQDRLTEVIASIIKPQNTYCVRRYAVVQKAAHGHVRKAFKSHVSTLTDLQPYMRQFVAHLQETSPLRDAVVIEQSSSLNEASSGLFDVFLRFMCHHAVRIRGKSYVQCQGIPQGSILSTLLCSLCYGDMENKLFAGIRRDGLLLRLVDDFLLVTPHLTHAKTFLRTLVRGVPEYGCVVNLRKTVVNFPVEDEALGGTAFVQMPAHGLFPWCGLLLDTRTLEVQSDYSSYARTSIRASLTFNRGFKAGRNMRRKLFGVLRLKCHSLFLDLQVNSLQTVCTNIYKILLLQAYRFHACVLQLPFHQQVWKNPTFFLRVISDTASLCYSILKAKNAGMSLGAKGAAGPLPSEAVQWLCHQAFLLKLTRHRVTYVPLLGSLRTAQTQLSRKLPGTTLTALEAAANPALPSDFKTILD

No constants are given. Whether binding was seen depends on the method and setting. In cells and extracts the contact can be indirect.

As to p53 (from UniProt P04637 1-393), the binding result is reported as “no binding”.
